{"source": "PubChem BioAssay AID1159584, Peter MacCallum Cancer Centre | 2016", "assay": "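Genes whose loss is lethal only together with E-cadherin loss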 (primary screen)", "cell system": "human MCF10A breast epithelial cells, parental and CDH1-null", "reagent": "siRNA against human genes", "measured": "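ATP luminescence (CellTiter-Glo) viability per line relative to mean mock wells over all plates, and the ratio of CDH1-null to parental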", "direction": "CDH1-null / parental viability ratio: higher = CDH1-null cells survive relatively better than parental", "note": "The whole screen tested about 18,000 reagents; shown is a part drawn at random. Not all columns of the deposit are shown. The record does not give: the amount of reagent, the time to read-out."}
{"gene symbol": "ZNF155", "CDH1-null / parental viability ratio": 1.2}
{"gene symbol": "XKRX", "CDH1-null / parental viability ratio": 1}
{"gene symbol": "RNF180", "CDH1-null / parental viability ratio": 1.01}
{"gene symbol": "DNAJC18", "CDH1-null / parental viability ratio": 0.95}
{"gene symbol": "PYROXD1", "CDH1-null / parental viability ratio": 1.23}
{"gene symbol": "KLRG2", "CDH1-null / parental viability ratio": 1.43}
{"gene symbol": "HTT", "CDH1-null / parental viability ratio": 1.08}
{"gene symbol": "CACNA1D", "CDH1-null / parental viability ratio": 1.13}
{"gene symbol": "PAFAH1B3", "CDH1-null / parental viability ratio": 0.99}
{"gene symbol": "S100A12", "CDH1-null / parental viability ratio": 1.27}
{"gene symbol": "CCDC102A", "CDH1-null / parental viability ratio": 0.86}
{"gene symbol": "CEP72", "CDH1-null / parental viability ratio": 1.35}
{"gene symbol": "SLC1A7", "CDH1-null / parental viability ratio": 1.17}
{"gene symbol": "THBS2", "CDH1-null / parental viability ratio": 1.21}

Sorted by “CDH1-null / parental viability ratio” (highest first): some entries from above.
{"gene symbol": "CACNA1D", "CDH1-null / parental viability ratio": 1.13}
{"gene symbol": "HTT", "CDH1-null / parental viability ratio": 1.08}
